Laboratory results: the supplement of paper PMC4635364
Where a name gives a salt, the structure may show the parent alone. The list shows a part of the results. Repeats in this data set agree poorly, so a single value says little.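 ReNCell VM, a human fetal ventral-midbrain neural progenitor line, was differentiated without mitogens. Blinded raters scored images stained for doublecortin (early neurons) or tyrosine hydroxylase (dopaminergic neurons) against untreated wells (0 = no change). Scores were averaged across repeats and both raters, and compounds averaging 2 or more were selected as hits for retesting.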

test system: ReNCell VM; assay: dopaminergic neuron differentiation score (TH+ cell fraction vs untreated, manual image score) (score (0 to 3)); higher = more TH+ dopaminergic neuron differentiation; settings: library: Prestwick; 2 uM; 4 weeks; BDNF 10 ng/ml + GDNF 10 ng/ml

Dopaminergic neuron differentiation score, inactive:
CN(CCOc1ccc(CC2SC(=O)NC2=O)cc1)c1ccccn1 (stereo not drawn) [Rosiglitazone Hydrochloride] 0
CC(=O)Oc1ccc(C(c2ccc(OC(C)=O)cc2)c2ccccn2)cc1 [Bisacodyl] 0
N[C@@H](Cc1cc(I)c(Oc2ccc(O)c(I)c2)c(I)c1)C(=O)O [Liothyronine] 0
OC(CCN1CCCCC1)(c1ccccc1)c1ccccc1 [Pridinol methanesulfonate salt] 0
CCOc1ccc2c(c1)C(C)=CC(C)(C)N2 [Ethoxyquin] 1
CC(C)NC[C@@H](O)COc1ccc(CC(N)=O)cc1 [(R)-(+)-Atenolol] 0
CN(C)CC/C=C1\c2ccccc2CSc2ccccc21 [Dosulepin hydrochloride] 0
Nc1ncn(C2OC(CO)C(O)C2O)c(=O)n1 (stereo not drawn) [Azacytidine-5] 0

A section of the results above, as a working copy:
Dopaminergic neuron differentiation score, inactive:
CN(C)CC/C=C1\c2ccccc2CSc2ccccc21 [Dosulepin hydrochloride] 0
Nc1ncn(C2OC(CO)C(O)C2O)c(=O)n1 (stereo not drawn) [Azacytidine-5] 0
